# Measured values from the supplement of paper PMC7666118.
# By UniProt entry, the sequences of proteins in these tests, tags left out. Where a name states a change or a piece, a line headed by the entry shows the natural chain unless it says otherwise.
# UniProt Q13043: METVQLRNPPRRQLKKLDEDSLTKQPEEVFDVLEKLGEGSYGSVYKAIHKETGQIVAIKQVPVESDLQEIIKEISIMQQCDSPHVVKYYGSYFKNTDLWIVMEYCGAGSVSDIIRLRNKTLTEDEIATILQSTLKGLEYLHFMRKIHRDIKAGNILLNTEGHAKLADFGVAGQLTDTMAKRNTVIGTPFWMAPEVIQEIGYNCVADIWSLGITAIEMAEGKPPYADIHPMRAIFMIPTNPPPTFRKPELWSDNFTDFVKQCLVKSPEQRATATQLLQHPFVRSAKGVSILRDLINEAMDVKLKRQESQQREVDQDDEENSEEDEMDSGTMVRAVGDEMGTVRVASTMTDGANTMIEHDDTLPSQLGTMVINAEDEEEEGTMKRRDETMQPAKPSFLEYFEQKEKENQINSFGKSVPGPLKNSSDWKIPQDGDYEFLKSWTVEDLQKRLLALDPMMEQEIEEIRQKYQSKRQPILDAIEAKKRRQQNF
# UniProt P49848, whole entry: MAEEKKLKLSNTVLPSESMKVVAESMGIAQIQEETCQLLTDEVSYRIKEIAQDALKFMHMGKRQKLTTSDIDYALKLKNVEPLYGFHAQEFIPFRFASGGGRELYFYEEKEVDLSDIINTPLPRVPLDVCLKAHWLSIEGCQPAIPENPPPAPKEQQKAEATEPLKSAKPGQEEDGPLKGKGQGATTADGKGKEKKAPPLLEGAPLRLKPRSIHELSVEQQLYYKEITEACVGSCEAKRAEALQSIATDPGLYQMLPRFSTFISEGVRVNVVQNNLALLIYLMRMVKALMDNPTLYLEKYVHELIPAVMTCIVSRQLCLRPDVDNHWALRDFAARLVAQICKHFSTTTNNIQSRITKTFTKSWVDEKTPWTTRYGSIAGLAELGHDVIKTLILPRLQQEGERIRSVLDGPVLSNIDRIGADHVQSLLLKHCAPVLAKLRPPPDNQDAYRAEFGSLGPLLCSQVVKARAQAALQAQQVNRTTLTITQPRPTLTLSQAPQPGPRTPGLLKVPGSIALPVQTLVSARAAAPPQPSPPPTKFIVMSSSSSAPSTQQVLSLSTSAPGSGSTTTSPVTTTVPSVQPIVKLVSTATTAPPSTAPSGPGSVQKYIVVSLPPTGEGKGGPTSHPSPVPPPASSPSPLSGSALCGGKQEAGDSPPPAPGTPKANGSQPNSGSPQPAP
# UniProt Q9NXE4: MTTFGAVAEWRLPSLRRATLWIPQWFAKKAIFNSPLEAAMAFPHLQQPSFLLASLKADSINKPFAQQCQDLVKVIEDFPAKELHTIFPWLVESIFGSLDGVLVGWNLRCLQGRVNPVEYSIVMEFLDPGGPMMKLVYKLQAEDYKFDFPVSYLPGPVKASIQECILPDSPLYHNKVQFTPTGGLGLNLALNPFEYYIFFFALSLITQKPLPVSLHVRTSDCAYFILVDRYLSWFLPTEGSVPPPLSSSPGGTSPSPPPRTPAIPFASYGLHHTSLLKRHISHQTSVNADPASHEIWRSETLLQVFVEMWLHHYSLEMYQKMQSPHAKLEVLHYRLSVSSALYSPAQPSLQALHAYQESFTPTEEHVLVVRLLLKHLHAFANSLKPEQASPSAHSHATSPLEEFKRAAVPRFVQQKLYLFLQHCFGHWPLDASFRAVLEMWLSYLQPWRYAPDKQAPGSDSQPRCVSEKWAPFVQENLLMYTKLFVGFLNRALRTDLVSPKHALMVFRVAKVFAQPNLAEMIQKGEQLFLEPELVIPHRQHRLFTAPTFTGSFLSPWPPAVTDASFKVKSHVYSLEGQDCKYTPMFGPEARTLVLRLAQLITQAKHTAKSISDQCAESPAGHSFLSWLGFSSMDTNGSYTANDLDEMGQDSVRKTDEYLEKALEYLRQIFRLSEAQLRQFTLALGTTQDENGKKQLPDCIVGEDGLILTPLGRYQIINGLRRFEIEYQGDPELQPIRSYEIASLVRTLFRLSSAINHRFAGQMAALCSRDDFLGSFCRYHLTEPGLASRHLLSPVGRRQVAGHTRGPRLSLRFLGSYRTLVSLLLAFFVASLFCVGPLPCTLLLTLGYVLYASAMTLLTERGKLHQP
# UniProt O95926: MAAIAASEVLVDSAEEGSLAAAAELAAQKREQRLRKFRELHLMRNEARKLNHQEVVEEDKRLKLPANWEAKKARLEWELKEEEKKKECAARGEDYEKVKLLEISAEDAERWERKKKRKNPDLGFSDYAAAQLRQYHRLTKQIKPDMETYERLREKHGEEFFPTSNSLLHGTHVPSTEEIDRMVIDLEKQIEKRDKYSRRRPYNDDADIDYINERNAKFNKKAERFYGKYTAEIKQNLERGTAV
# UniProt Q9Y5W9: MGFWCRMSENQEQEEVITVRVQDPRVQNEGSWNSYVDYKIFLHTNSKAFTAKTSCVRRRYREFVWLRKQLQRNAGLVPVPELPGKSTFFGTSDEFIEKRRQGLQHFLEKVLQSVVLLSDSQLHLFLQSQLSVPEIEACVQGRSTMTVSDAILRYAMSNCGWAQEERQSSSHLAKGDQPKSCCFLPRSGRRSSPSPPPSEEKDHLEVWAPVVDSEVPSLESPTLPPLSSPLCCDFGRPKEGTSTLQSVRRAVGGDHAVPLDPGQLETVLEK
# UniProt Q68D06: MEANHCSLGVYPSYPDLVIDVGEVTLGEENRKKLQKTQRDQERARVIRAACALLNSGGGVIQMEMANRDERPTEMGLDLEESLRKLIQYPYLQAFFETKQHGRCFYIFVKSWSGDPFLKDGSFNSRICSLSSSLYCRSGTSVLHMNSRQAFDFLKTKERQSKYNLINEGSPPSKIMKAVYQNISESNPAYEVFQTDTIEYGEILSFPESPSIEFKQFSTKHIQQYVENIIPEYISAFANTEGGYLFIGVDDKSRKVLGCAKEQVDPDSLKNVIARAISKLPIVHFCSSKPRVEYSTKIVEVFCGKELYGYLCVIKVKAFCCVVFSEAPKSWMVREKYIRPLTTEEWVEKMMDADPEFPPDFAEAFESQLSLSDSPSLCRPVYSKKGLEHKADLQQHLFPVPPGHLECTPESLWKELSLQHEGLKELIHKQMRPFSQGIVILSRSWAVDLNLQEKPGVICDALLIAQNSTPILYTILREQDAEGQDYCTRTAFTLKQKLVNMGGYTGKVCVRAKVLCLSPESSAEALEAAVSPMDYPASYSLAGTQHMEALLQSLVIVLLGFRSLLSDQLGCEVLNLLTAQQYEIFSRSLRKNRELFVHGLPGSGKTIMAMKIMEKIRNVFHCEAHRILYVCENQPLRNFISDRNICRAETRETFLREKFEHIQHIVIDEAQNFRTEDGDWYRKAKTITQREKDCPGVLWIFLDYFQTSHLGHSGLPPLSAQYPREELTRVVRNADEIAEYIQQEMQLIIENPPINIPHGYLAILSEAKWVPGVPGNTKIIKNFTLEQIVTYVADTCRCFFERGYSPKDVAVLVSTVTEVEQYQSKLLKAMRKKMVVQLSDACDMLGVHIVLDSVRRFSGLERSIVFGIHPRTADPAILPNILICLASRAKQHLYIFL
# UniProt Q5SQN1: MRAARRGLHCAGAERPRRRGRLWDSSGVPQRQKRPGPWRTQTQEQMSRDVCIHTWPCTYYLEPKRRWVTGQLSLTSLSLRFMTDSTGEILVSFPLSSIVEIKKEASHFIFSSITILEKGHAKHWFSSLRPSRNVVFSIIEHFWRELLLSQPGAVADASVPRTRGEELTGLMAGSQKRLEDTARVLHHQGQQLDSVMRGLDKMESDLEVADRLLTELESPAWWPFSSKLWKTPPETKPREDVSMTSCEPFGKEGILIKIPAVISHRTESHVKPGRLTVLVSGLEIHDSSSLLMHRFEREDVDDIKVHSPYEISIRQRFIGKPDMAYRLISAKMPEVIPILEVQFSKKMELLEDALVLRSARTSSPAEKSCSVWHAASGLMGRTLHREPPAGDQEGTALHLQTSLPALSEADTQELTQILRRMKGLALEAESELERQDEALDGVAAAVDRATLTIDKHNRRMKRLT
# UniProt O95772: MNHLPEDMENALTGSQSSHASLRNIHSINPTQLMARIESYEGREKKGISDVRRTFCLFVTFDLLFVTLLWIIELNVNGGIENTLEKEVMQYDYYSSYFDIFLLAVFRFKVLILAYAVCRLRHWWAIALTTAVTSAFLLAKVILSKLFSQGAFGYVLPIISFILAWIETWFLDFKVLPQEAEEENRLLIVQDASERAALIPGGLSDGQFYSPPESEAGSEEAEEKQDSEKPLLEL
# UniProt Q96JI7: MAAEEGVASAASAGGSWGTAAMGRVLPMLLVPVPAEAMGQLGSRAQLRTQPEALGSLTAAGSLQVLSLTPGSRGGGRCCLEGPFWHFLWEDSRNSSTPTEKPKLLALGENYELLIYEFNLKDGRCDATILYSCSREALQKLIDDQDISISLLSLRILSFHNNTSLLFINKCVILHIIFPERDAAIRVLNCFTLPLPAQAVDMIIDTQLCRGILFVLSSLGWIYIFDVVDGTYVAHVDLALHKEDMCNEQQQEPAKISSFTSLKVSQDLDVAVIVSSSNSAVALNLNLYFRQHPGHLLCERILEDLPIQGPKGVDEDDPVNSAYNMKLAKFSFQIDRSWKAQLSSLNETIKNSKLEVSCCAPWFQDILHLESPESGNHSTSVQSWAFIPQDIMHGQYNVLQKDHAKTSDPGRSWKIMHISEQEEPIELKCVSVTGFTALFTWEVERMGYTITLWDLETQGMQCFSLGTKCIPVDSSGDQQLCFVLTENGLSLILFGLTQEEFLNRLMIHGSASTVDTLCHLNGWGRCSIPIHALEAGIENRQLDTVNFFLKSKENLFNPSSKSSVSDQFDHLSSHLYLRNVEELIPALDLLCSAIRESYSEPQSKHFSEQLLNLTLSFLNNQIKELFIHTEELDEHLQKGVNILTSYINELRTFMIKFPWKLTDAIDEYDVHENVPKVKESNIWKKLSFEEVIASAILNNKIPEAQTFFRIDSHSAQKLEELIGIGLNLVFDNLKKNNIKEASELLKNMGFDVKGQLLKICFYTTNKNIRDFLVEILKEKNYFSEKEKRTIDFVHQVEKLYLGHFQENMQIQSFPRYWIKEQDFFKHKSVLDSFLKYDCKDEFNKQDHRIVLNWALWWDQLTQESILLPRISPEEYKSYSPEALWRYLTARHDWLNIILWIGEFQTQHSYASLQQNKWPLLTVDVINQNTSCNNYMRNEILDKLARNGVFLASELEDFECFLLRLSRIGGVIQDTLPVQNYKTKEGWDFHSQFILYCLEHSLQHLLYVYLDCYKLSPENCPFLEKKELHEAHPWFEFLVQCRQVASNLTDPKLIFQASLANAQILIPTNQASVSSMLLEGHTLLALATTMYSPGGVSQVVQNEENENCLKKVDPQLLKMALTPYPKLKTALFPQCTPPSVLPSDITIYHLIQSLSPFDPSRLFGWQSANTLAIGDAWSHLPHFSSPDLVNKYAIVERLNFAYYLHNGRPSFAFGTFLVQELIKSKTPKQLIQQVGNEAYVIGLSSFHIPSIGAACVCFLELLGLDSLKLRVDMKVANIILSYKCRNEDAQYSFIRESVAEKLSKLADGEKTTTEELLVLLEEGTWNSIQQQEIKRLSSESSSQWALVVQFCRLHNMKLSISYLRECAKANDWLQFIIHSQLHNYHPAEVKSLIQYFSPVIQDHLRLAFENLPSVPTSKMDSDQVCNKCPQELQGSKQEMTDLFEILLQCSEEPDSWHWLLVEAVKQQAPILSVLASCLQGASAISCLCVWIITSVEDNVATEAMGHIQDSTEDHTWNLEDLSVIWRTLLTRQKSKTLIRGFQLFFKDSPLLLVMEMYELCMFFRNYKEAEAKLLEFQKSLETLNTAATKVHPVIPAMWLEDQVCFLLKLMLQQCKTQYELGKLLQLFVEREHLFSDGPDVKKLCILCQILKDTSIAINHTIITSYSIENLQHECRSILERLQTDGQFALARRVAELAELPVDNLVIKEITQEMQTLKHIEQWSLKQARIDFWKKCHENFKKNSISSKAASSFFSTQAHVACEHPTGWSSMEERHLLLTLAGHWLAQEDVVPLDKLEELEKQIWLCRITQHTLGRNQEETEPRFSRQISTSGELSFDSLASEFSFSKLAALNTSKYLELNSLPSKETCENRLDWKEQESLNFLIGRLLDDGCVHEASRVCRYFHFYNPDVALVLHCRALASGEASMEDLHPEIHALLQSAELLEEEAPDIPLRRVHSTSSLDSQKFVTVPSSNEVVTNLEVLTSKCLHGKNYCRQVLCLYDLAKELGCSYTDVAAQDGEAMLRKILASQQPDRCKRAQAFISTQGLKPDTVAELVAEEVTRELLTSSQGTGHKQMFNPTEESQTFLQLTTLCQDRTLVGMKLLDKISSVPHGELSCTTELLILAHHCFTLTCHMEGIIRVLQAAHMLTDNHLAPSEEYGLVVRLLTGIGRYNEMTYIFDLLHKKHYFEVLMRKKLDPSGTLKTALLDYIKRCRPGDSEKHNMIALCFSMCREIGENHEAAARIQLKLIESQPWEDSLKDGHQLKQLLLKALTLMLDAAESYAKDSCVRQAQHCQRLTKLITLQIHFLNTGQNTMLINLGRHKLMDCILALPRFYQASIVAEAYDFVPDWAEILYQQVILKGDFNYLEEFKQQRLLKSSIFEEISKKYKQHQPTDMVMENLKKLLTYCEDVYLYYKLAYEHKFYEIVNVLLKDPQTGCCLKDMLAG
# The other results are listed elsewhere or left out.
# Compound: COc1ccc(Cn2ccc3ccc(C(=O)NO)cc32)cc1
# Test: dose-dependent thermal stabilisation call (2D-TPP, DLPTP, 10% FDR) (binary (1 = stabilised)); higher = stabilised by the compound
# Details: system: HL-60 intact cells; concentration range 0.04-10 µM
row,Target,dose-dependent thermal stabilisation call
1,SRRM1 (UniProt Q8IYB3),inactive: 0
2,SON (UniProt P18583),inactive: 0
3,STX4 (UniProt Q12846),inactive: 0
4,STK4 (UniProt Q13043),inactive: 0
5,STAT3 (UniProt P40763),inactive: 0
6,TAF7 (UniProt Q15545),inactive: 0
7,TAF6 (UniProt P49848),inactive: 0
8,SMPD4 (UniProt Q9NXE4),inactive: 0
9,STX3 (UniProt Q13277),inactive: 0
10,SYF2 (UniProt O95926),inactive: 0
11,TAF15 (UniProt Q92804),inactive: 0
12,SUZ12 (UniProt Q15022),inactive: 0
13,STXBP2 (UniProt Q15833),inactive: 0
14,SNX11 (UniProt Q9Y5W9),inactive: 0
15,SUPT6H (UniProt Q7KZ85),inactive: 0
16,STAM2 (UniProt O75886),inactive: 0
17,SLFN13 (UniProt Q68D06),inactive: 0
18,STBD1 (UniProt O95210),inactive: 0
19,SNAP47 (UniProt Q5SQN1),inactive: 0
20,SUPV3L1 (UniProt Q8IYB8),inactive: 0
21,STARD3NL (UniProt O95772),inactive: 0
22,SOS1 (UniProt Q07889),inactive: 0
23,STXBP3 (UniProt O00186),inactive: 0
24,ST14 (UniProt Q9Y5Y6),inactive: 0
25,ST7 (UniProt Q9NRC1),inactive: 0
26,SPG11 (UniProt Q96JI7),inactive: 0
27,SRP09,inactive: 0
28,SMARCD1 (UniProt Q96GM5),inactive: 0

# Exported with tabs: part of the list above
row	Target	dose-dependent thermal stabilisation call
18	STBD1 (UniProt O95210)	inactive: 0
19	SNAP47 (UniProt Q5SQN1)	inactive: 0
